PubChem BioAssay AID652243 | Drosophila RNAi Screening Center – 2013

- Purpose: 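Knock-downs that decrease or increase androgen receptor reporter signal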 (primary screen)
- System: Drosophila S2R+ cells
- Reagents: long dsRNA against Drosophila genes
- Timing: 72 h (48 h, then 24 h hormone)
- Treatment: synthetic androgen R1881 at 10 nM for 24 h
- Measured: 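Per-well raw luminescence of the androgen-driven firefly reporter and of the Renilla control, two replicates each, without normalisation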
- Direction: firefly reporter light: higher = more light from androgen-responsive reporter; Renilla control light: higher = more constitutive control signal (cell number, transfection)
- Rule for the call: 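Hit when the log firefly-to-Renilla ratio dropped or increased by a fixed fold versus the mean of GFP or LacZ controls across duplicate plates; lowering cut given as 1.5 and as 3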
- Calls: active = hit: reporter lowered or raised; inactive = no hit
The screen tested about 24,000 reagents; below is an unselected part of those with a known target gene and a result. Of all reagents, 246 (1%) were called active. 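Plates not normalised; calls are printed but the firefly/Renilla ratio behind them is not deposited; fold cut for lowering reported inconsistently.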 Raw values vary from plate to plate and are shown uncorrected. Unmarked entries are inactive. A plus sign joins genes that one reagent is predicted to hit. The record does not give: the amount of reagent.

gene | DRSC id | firefly reporter light, replicate 1 | firefly reporter light, replicate 2 | Renilla control light, replicate 1 | Renilla control light, replicate 2
Ir21a + asRNA:CR43609 | DRSC00528 | 62097 | 62620 | 3.18e5 | 4.83e5
CG42673 | DRSC08989 | 1.81e5 | 1.77e5 | 4.98e5 | 4.47e5
CG42673 | DRSC08991 | 11054 | 11109 | 42250 | 47330
CG42673 | DRSC10177 | 2.10e5 | 2.17e5 | 1.74e6 | 1.56e6
CG42673 | DRSC10264 | 3.45e5 | 3.12e5 | 2.21e6 | 2.04e6
CG42673 | DRSC10353 | 3.42e5 | 2.83e5 | 3.67e6 | 2.94e6
CG42673 | DRSC10354 | 3.95e5 | 3.04e5 | 2.87e6 | 2.25e6
CG42673 | DRSC25788 | 4.24e5 | 3.43e5 | 8.76e5 | 7.06e5
Or85f | DRSC16769 | 1.32e5 | 1.07e5 | 2.22e6 | 2.01e6
ADD1 | DRSC07135 | 7.60e5 | 1.21e6 | 1.26e6 | 1.49e6
ADD1 | DRSC26133 | 2.08e5 | 1.79e5 | 7.46e5 | 6.83e5

Laid out differently: entries from further up.
| gene | DRSC id | firefly reporter light, replicate 1 | firefly reporter light, replicate 2 | Renilla control light, replicate 1 | Renilla control light, replicate 2 |
| --- | --- | --- | --- | --- | --- |
| CG42673 | DRSC25788 | 4.24e5 | 3.43e5 | 8.76e5 | 7.06e5 |
| Or85f | DRSC16769 | 1.32e5 | 1.07e5 | 2.22e6 | 2.01e6 |

Additional entries follow:
gene | DRSC id | firefly reporter light, replicate 1 | firefly reporter light, replicate 2 | Renilla control light, replicate 1 | Renilla control light, replicate 2
CG14949 | DRSC08408 | 1.54e5 | 1.27e5 | 2.87e6 | 2.26e6
Or19a | DRSC20684 | 1.45e5 | 99983 | 2.09e5 | 2.02e5
msi | DRSC17003 | 2.07e5 | 3.45e5 | 1.99e6 | 1.68e6
Cpsf5 | DRSC10374 | 1.27e6 | 1.30e6 | 1.75e6 | 1.85e6
Cpsf5 | DRSC27451 | 1.71e5 | 2.98e5 | 5.24e5 | 6.74e5
CG7110 | DRSC03011 | 6.14e5 | 6.05e5 | 1.49e6 | 1.89e6
CG7110 | DRSC03012 | 2.44e5 | 2.29e5 | 1.53e6 | 1.70e6
CG3918 | DRSC23159 | 5.33e5 | 6.93e5 | 1.34e6 | 1.53e6
CG3918 | DRSC28834 | 4.38e5 | 5.14e5 | 1.17e6 | 1.14e6
CG11345 | DRSC08176 | 2.61e5 | 2.20e5 | 2.57e6 | 1.80e6
CG11345 | DRSC28509 | 3.58e5 | 7.90e5 | 4.46e5 | 9.39e5
CSN8 | DRSC02257 | 7.39e5 | 8.28e5 | 2.55e6 | 2.57e6
Rab18 | DRSC18702 | 59105 | 83316 | 6.24e5 | 4.56e5
Rab18 | DRSC26667 | 2.44e5 | 1.85e5 | 6.16e5 | 5.90e5
